From PubChem BioAssay AID504834 (National Center for Advancing Translational Sciences (NCATS), 2011)
Values joined by “and” are separate entries in the source; they are usually repeats but may differ in a detail not shown here. Identical values can stand only once. In all, about 320,000 compounds went through this assay and about 22,000 (6.9%) were called active. Inconclusive means that the source gave no clear call. Such entries were picked first, then a sample of the others. The call rests on the fitted dose curve; in most records, active means well fitted inhibition curve with a large enough effect; inconclusive means small, poorly fitted or top-dose-only effect, or another doubt; inactive means no such curve, though single readings can be large or run the other way. Potencies beside an inconclusive call are fits to weak or partial responses and may not hold up.

Experiment: Primary qHTS for delayed death inhibitors of the malarial parasite plastid, 96 hour incubation
Conditions: P. falciparum luciferase reporter growth; series mostly up to 28.7 µM
How it was run: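 Parasite growth measured via integrated firefly luciferase reporter in P. falciparum. Infected erythrocytes at 2% hematocrit, 0.05% parasitemia final were treated 96 hours at 37 C under 5% CO2, and luminescence was read.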
Potency means the concentration at half of the fitted maximal effect.

Q: With `CN1CCN(c2ccccc2NC(=O)c2ccc(N3CCCCC3)c([N+](=O)[O-])c2)CC1` as the compound, how does the Potency read?
A: The Potency was inconclusive: 18.5 µM [inhibitor, single point].

Q: For `CCOC(=O)c1c(C)n(C)c2ccc(OCC(O)CNCCc3ccccc3)cc12` (stereo unspecified), which Potency is on record?
A: The Potency was active: 4.65 µM.

Q: For `CCOC(=O)c1ccc(COC(=O)c2nonc2N)cc1`, which Potency is on record?
A: The Potency was inconclusive: 0.928 µM [inhibitor, full curve, poor fit].

Q: For `CCc1ccc(OCC(=O)Nc2ccc(-c3nc4ccccc4o3)c(O)c2)cc1`, which Potency is on record?
A: The Potency was inconclusive: 0.657 µM [inhibitor, partial curve, poor fit].

Q: With `O=[N+]([O-])c1ccc(Nc2ccccc2O)c2nonc12` as the compound, how does the Potency read?
A: Its Potency is “inactive”.

Q: Which Potency does the source give for `CCOC(=O)c1cn2nc(Oc3ccc(NC(C)=O)cc3)ccc2n1` here?
A: Its Potency is “inactive”.

Q: With `CCCOC(=O)NC(CC)COC(=O)Nc1cccc(C)c1C` (stereo unspecified) as the compound, how does the Potency read?
A: The Potency was active: 9.28 µM.

Q: With `O=C(O)C1=C(C(=O)Nc2ccc(F)c(Cl)c2)CCCC1` as the compound, how does the Potency read?
A: Its Potency is “inactive”.

Q: With `Cc1nn(C)c(C(=O)N2CCOCC2)c1Cl` as the compound, how does the Potency read?
A: Its Potency is inconclusive: 1.47 µM [inhibitor, partial curve, poor fit].

Q: Which Potency does the source give for `O=C(NCCN1C(=O)S/C(=C\c2ccc(Cl)c([N+](=O)[O-])c2)C1=O)C1=COCCO1` here?
A: The Potency was inconclusive: 9.28 µM [inhibitor, partial curve, poor fit].

Q: Which Potency does the source give for `CC1CCCCC1NC(=O)C1CCN(S(=O)(=O)c2cccc3nonc23)CC1` (stereo unspecified) here?
A: The Potency was inconclusive: 1.65 µM [inhibitor, full curve, poor fit].

Q: For `CCOC(=O)[C@H]1[C@H]2COc3ccc(Br)cc3[C@@H]2N2C(=O)CN(Cc3ccc(OC)cc3)C(=O)[C@@]12C`, which Potency is on record?
A: The Potency was inconclusive: 4.15 µM [inhibitor, full curve].

Q: With `Cc1c(C)c2cccnc2c2ncccc12` as the compound, how does the Potency read?
A: Its Potency is inconclusive: 5.22 µM [inhibitor, partial curve, poor fit].

Q: With `Cc1cc(=O)n2nc(N3CCC(C(=O)NCc4ccccc4F)CC3)sc2n1` as the compound, how does the Potency read?
A: The Potency was inconclusive: 18.5 µM [inhibitor, single point].

Q: With `CN(C)C(=O)c1sccc1Oc1ccc(F)cc1[N+](=O)[O-]` as the compound, how does the Potency read?
A: The Potency was “inactive”.

Q: With `CC1CC(C)CN(C(=O)Cn2nnc(-c3ccc(Br)cc3)n2)C1` (stereo unspecified) as the compound, how does the Potency read?
A: The Potency was “inactive”.

Q: With `COc1ccc(-c2cn[nH]c2C)cc1OC` as the compound, how does the Potency read?
A: The Potency was “inactive”.

Q: For `COc1ccc(CN(C(=O)c2oc3cc(C)ccc3c2C)C2CCS(=O)(=O)C2)cc1OC` (stereo unspecified), which Potency is on record?
A: The Potency was “inactive”.

Q: For `O=C(COc1ccc(-n2ccnc2)cc1)Nc1cccc(F)c1`, which Potency is on record?
A: The Potency was inconclusive: 9.28 µM [inhibitor, partial curve].

Q: For `CCOC(=O)c1c(NC(=O)C2CCCN(S(=O)(=O)c3ccccc3)C2)sc2c1CCCC2` (stereo unspecified), which Potency is on record?
A: Its Potency is inconclusive: 10.4 µM [inhibitor, single point].

Q: For `NC(N)=Nc1nc(-c2ccccc2)c2cc(F)ccc2n1`, which Potency is on record?
A: Its Potency is “inactive”.

Q: For `COCCNC(=O)Cn1c(=O)n(Cc2ccc(C(=O)NCc3ccco3)cc2)c(=O)c2ccccc21`, which Potency is on record?
A: The Potency was “inactive”.

Q: With `Cc1ccc(S(=O)(=O)N(C)C)cc1NC(=O)COC(=O)CCCOc1ccccc1` as the compound, how does the Potency read?
A: Its Potency is “inactive”.

Q: With `CC(C)CC(=O)NC(=S)Nc1ccc(N2CCN(C(=O)c3cccs3)CC2)cc1` as the compound, how does the Potency read?
A: Its Potency is inconclusive: 8.28 µM [inhibitor, partial curve].

Q: For `Cc1ccn2c(NC(=O)C(C)(C)Oc3ccc(Cl)cc3)c(-c3cccs3)nc2c1`, which Potency is on record?
A: Its Potency is active: 11.7 µM.

Q: For `CCCc1nnc(NC(=S)Nc2ccccc2)s1`, which Potency is on record?
A: Its Potency is “inactive”.

Q: With `O=S(=O)(NCc1cccnc1)c1ccc(Cl)s1` as the compound, how does the Potency read?
A: Its Potency is “inactive”.

Q: With `C=C(C)C1CC=C(C)/C(=N/NC(=O)COc2ccccc2C)C1` (stereo unspecified) as the compound, how does the Potency read?
A: The Potency was inconclusive: 4.65 µM [inhibitor, partial curve].

Q: For `Cc1ccccc1Nc1cc(C(=O)NCC2CCCO2)c2ccccc2n1` (stereo unspecified), which Potency is on record?
A: Its Potency is inconclusive: 13.1 µM [inhibitor, partial curve, poor fit].

Q: Which Potency does the source give for `CC(C)(C)c1ccc(-c2nc3[nH]c(=O)cc(NC(=O)c4ccco4)n3n2)cc1` here?
A: The Potency was active: 4.15 µM.

Q: For `COc1cc(OC)cc(C(=O)NCCCCCCNC(=O)c2cc(OC)cc(OC)c2)c1`, which Potency is on record?
A: The Potency was inconclusive: 18.5 µM [inhibitor, single point].

Q: For `O=C(NCCc1cnc[nH]1)c1ccc(-c2ccccc2)cc1`, which Potency is on record?
A: Its Potency is “inactive”.

Q: Which Potency does the source give for `Cc1cc2c(c(=O)n1Cc1cccnc1)C(c1ccc(F)cc1)C(C#N)=C(N)O2` (stereo unspecified) here?
A: The Potency was inconclusive: 0.104 µM [inhibitor, full curve, poor fit].

Q: With `O=S(=O)(c1ccc(Cl)cc1)N1CCN(c2nc(-c3cccs3)nc3ccccc23)CC1` as the compound, how does the Potency read?
A: Its Potency is active: 1.47 µM.

Q: With `C[C@]12CC[C@H]3[C@@H](CC=C4C[C@@H](O)CC[C@@]43C)[C@@H]1CC[C@@H]2O` as the compound, how does the Potency read?
A: The Potency was inconclusive: 1.69 µM [inhibitor, full curve].

Q: For `Cc1occc1-c1nnc(SCC(=O)Nc2ccccn2)o1`, which Potency is on record?
A: The Potency was “inactive”.

Q: With `Cc1ccc(-c2cc(C(=O)NN3CCOCC3)c3cc(Br)ccc3n2)o1` as the compound, how does the Potency read?
A: Its Potency is active: 5.22 µM.

Q: With `CC(C)N(Cc1ccccc1)S(=O)(=O)c1ccc2c(c1)NC(=O)CO2` as the compound, how does the Potency read?
A: Its Potency is inconclusive: 0.0657 µM [inhibitor, full curve, poor fit].

Q: With `COc1ccc(CNc2oc(COc3ccccc3)nc2C#N)cc1` as the compound, how does the Potency read?
A: The Potency was inconclusive: 20.8 µM [inhibitor, single point].

Q: With `CCn1ccnc1CN1CCN(CCC(C)C)C(CCO)C1` (stereo unspecified) as the compound, how does the Potency read?
A: The Potency was active: 11.7 µM.

Q: Which Potency does the source give for `CC(C)(CO)C(O)C(=O)NCCCC(=O)O` (stereo unspecified) here?
A: Its Potency is “inactive”.

Q: For `Cc1c(Cl)cccc1NC(=S)NN`, which Potency is on record?
A: The Potency was inconclusive: 5.22 µM [inhibitor, single point].

Q: With `Cc1cccc(CCN(CC(=O)NCc2ccc(F)cc2)C(=O)c2csnn2)c1` as the compound, how does the Potency read?
A: The Potency was “inactive”.

Q: With `CC(C)(C)NC(=O)NC(=O)CSc1ncn[nH]1` as the compound, how does the Potency read?
A: The Potency was “inactive”.

Q: With `Cc1ccc(NS(=O)(=O)c2ccc(F)cc2)nc1` as the compound, how does the Potency read?
A: The Potency was inconclusive: 3.29 µM [inhibitor, partial curve].

Q: With `CC1Cc2ccccc2N1C(=O)CSc1nnc(Cc2ccccc2)n1CCc1ccccc1` (stereo unspecified) as the compound, how does the Potency read?
A: Its Potency is inconclusive: 0.0828 µM [inhibitor, full curve, poor fit].

Q: With `O=C(CCCOc1ccccc1)Nc1nccs1` as the compound, how does the Potency read?
A: Its Potency is inconclusive: 18.5 µM [inhibitor, single point].

Q: For `COc1ccc(OC)c(C(=O)NC(CC(N)=O)c2ccc(NCCN3CCOCC3)c([N+](=O)[O-])c2)c1` (stereo unspecified), which Potency is on record?
A: The Potency was “inactive”.

Q: Which Potency does the source give for `Cc1ccc(S(=O)(=O)NC(CN2CCOCC2)=NCCNS(=O)(=O)c2ccccc2)cc1` here?
A: The Potency was “inactive”.

Q: With `CCOc1ccc(OCCNC(=O)c2cc(C3CC3)nc3c2cnn3C(C)C)cc1` as the compound, how does the Potency read?
A: The Potency was inconclusive: 14.7 µM [inhibitor, single point].

Q: Which Potency does the source give for `O=C(NNc1ccccc1Br)C(O)(c1cccc(C(F)(F)F)c1)c1cccc(C(F)(F)F)c1` here?
A: Its Potency is active: 2.33 µM.

Q: With `CCN(CC)CCCn1c(=S)[nH]c2ccc(Cl)cc2c1=O` as the compound, how does the Potency read?
A: The Potency was “inactive”.

Q: For `COc1cccc(CC(=O)NCC2COc3ccccc3O2)c1OC` (stereo unspecified), which Potency is on record?
A: Its Potency is inconclusive: 18.5 µM [inhibitor, single point].

Q: Which Potency does the source give for `O=C(O)CCC(=O)N1CCc2cc(S(=O)(=O)NC3CCCC3)ccc21` here?
A: Its Potency is inconclusive: 0.522 µM [inhibitor, full curve, poor fit].

Q: Which Potency does the source give for `Cc1cc(/C=C2\SC(=O)NC2=O)c(C)n1-c1ccc(N(C)C)cc1` here?
A: Its Potency is “inactive”.

Q: With `CCC(=O)NC(C)c1cc(Cl)c2cccnc2c1O` (stereo unspecified) as the compound, how does the Potency read?
A: Its Potency is inconclusive: 9.28 µM [inhibitor, partial curve] and inconclusive: 18.5 µM [inhibitor, single point].

Q: With `O=C(CC1C(=O)NCCN1CC1CCCCC1)NCc1ccc(Cl)cc1` (stereo unspecified) as the compound, how does the Potency read?
A: The Potency was inconclusive: 3.7 µM [inhibitor, partial curve, poor fit].

Q: With `FC(F)(F)c1cccc(NC(=S)NCCc2ccccn2)c1` as the compound, how does the Potency read?
A: Its Potency is inconclusive: 18.5 µM [inhibitor, single point].

Q: With `O=C(N/N=C/c1ccccc1C(=O)O)c1cccc(S(=O)(=O)N2CCCCC2)c1` as the compound, how does the Potency read?
A: Its Potency is “inactive”.

Q: Which Potency does the source give for `CN1c2ccc(Cl)cc2C(=O)NC1c1ccc([N+](=O)[O-])s1` (stereo unspecified) here?
A: Its Potency is inconclusive: 18.5 µM [inhibitor, single point].

Q: With `c1ccc(-c2cnnc(SCc3cn4cccnc4n3)n2)cc1` as the compound, how does the Potency read?
A: Its Potency is active: 9.28 µM.

Q: With `CC(NC(=O)C1CC12CCC2)c1ccccc1` (stereo unspecified) as the compound, how does the Potency read?
A: The Potency was “inactive”.

Q: Which Potency does the source give for `COc1ccc(N2CCN(C(=O)CN3C(=O)COc4ccccc43)CC2)cc1` here?
A: The Potency was “inactive”.

Q: For `CCN(/C=N/c1sc2c(c1C#N)CCCCC2)CC`, which Potency is on record?
A: The Potency was “inactive”.

Q: For `O=C(OCc1nc2ccc(Cl)cc2n1CCO)c1ccc(O)cc1`, which Potency is on record?
A: The Potency was “inactive”.

Q: With `CC(=O)Nc1c(Cl)n(C(C)=O)c2ccccc12` as the compound, how does the Potency read?
A: The Potency was inconclusive: 16.5 µM [inhibitor, single point].

Q: Which Potency does the source give for `Fc1ccc(Cn2nnnc2C(c2ccc(Cl)cc2)N2CC=C(c3ccc(F)cc3)CC2)cc1` (stereo unspecified) here?
A: The Potency was “inactive”.

Q: For `CCSc1nnc(NC(=O)Cc2ccc(OC)c(OC)c2)s1`, which Potency is on record?
A: Its Potency is “inactive”.

Q: With `Cc1ccc(SCCC(=O)Nc2cccc(N(C)S(C)(=O)=O)c2)cc1` as the compound, how does the Potency read?
A: The Potency was “inactive”.

Q: For `O=c1c2oc3ccccc3c2ncn1Cc1ccccc1F`, which Potency is on record?
A: The Potency was inconclusive: 10.4 µM [inhibitor, partial curve, poor fit].

Q: For `CC(C)(C)c1cc[n+](CC(=O)Nc2cc(C(F)(F)F)ccc2N2CCOCC2)cc1`, which Potency is on record?
A: The Potency was inconclusive: 13.1 µM [inhibitor, single point].

Q: Which Potency does the source give for `CCCCNC(=S)N(C)/N=C/c1c(F)c(F)c(F)c(F)c1F` here?
A: Its Potency is “inactive”.

Q: Which Potency does the source give for `COc1ccc(OCC(=O)N/N=C(\C)c2ccc(-n3ccnc3)cc2)cc1` here?
A: The Potency was “inactive”.

Q: With `O=C(c1cc(S(=O)(=O)N2CCOCC2)ccc1Cl)N1CCC(Cc2ccccc2)CC1` as the compound, how does the Potency read?
A: Its Potency is inconclusive: 11.7 µM [inhibitor, single point].

Q: Which Potency does the source give for `COc1cccc(CN(C)C(=O)c2ccc3nccnc3c2)c1` here?
A: The Potency was inconclusive: 18.5 µM [inhibitor, single point].

Q: Which Potency does the source give for `COCCNC(=O)c1ccc(N2CCC3(CC2)OCCO3)c([N+](=O)[O-])c1` here?
A: The Potency was active: 14.7 µM.
